In PMC10553830, “Functional and structural analyses reveal that a dual domain sialidase protects bacteria from complement killing through desialylation of complement factors” (PLOS Pathogens, 2023):
These are yes or no findings as the source states them, for the method shown.

Biological target: PG0352, dual domain sialidase of Porphyromonas gingivalis W83 (Porphyromonas gingivalis W83) (UniProt Q7MX62)
Assay: SEC; Ni-NTA purified PG0352 dialysed in 50 mM Tris, 150 mM NaCl, pH 7.0, on Superdex 200; single large peak, estimated MW 52 kDa; both purified

B1: PG0352, dual domain sialidase of Porphyromonas gingivalis W83 (enzyme, UniProt Q7MX62 31-526)
chain: QEVTMWGDSHGVAPNQVRRTLVKVALSESLPPGAKQIRIGFSLPKETEEKVTALYLLVSDSLAVRDLPDYKGRVSYDSFPISKEDRTTALSADSVAGRRFFYLAADIGPVASFSRSDTLTARVEEVAVDGRPLPLKELSPASRRLYRGYEALFVPGDGGSRNYRIPAILKTANGTLIAMADRRKYNQTDLPEDIDIVMRRSTDGGKSWSDPRIIVQGEGRNHGFGDVALVQTQAGKLLMIFVGGVGLWQSTPDRPQRTYISESRDEGLTWSPPRDITHFIFGKDCADPGRSRWLASFCASGQGLVLPSGRITFVAAIRESGQEYVLNNYVLYSDDEGDTWQLSDCAYRRGDEAKLSLMPDGRVLMSIRNQGRQESRQRFFALSSDDGLTWERAKQFEGIHDPGCNGAMLQVKRNGRDQVLHSLPLGPDGRRDGAVYLFDHVSGRWSAPVVVNSGSSAYSDMTLLADGTIGYFVEEGDEISLVFIRFVLDDLFDVRQ
With B1 the binding was “no binding”.
